This note sets out measurements from publication PMC6408450.

These are yes or no findings as the source states them, for the method shown. In cells and extracts the contact can be indirect. Here binding means that the protein was enriched with, or labelled near, the bait; the list need not be complete.

B1: MPZ (protein, UniProt P27573 30-248)
chain: IVVYTDREIYGAVGSQVTLHCSFWSSEWVSDDISFTWRYQPEGGRDAISIFHYAKGQPYIDEVGAFKERIQWVGDPRWKDGSIVIHNLDYSDNGTFTCDVKNPPDIVGKTSQVTLYVFEKVPTRYGVVLGAVIGGILGVVLLLLLLFYLIRYCWLRRQAALQRRLSAMEKGRFHKSSKDSSKRGRQTPVLYAMLDHSRSTKAASEKKSKGLGESRKDKK
B2: COCH (protein, UniProt Q62507 27-552)
chain: EGAVPIPVTCFTRGLDIRKEKADVLCPGGCSLEEFSVFGNIVYASVSSICGAAVHRGVIGTSGGPVRVYSLPGRENYSSVDANGIQSQMLSRWSASFAVTKGKSSTQEATGRAVSTAHPPSGKRLKKTPEKKTGNKDCKADIAFLIDGSFNIGQRRFNLQKNFVGKVALMLGIGTEGPHVGLVQASEHPKIEFYLKNFTSAKDVLFAIKEVGFRGGNSNTGKALKHTAQKFFTADTGVRKGIPKVVVVFIDGWPSDDIEEAGIVAREFGVNVFIVSVAKPIPEELGMVQDVAFVDKAVCRNNGFFSYHMPNWFGTTKYVKPLVQKLCTHEQMMCSKTCYNSVNIAFLIDGSSSVGDSNFRLMLEFVSNIAKTFEISDIGAKIAAVQFTYDQRTEFSFTDYNTKENVLAVLANIRYMSGGTATGDAIAFTVRNVFGPIRDSPNKNFLVIVTDGQSYDDVRGPAAAAHDAGITIFSVGVAWAPLDDLRDMASKPKESHAFFTREFTGLEPIVSDVIRGICRDFLESQQ
B3: SERPINH1 (protein, UniProt P19324 18-417)
chain: AEVKKPLEAAAPGTAEKLSSKATTLAERSTGLAFSLYQAMAKDQAVENILLSPLVVASSLGLVSLGGKATTASQAKAVLSAEKLRDEEVHTGLGELLRSLSNSTARNVTWKLGSRLYGPSSVSFADDFVRSSKQHYNCEHSKINFRDKRSALQSINEWASQTTDGKLPEVTKDVERTDGALLVNAMFFKPHWDEKFHHKMVDNRGFMVTRSYTVGVTMMHRTGLYNYYDDEKEKLQMVEMPLAHKLSSLIILMPHHVEPLERLEKLLTKEQLKAWMGKMQKKAVAISLPKGVVEVTHDLQKHLAGLGLTEAIDKNKADLSRMSGKKDLYLASVFHATAFEWDTEGNPFDQDIYGREELRSPKLFYADHPFIFLVRDNQSGSLLFIGRLVRPKGDKMRDEL
B4: KRT10 (protein, UniProt P02535 1-570)
chain: MSVLYSSSSKQFSSSRSGGGGGGGSVRVSSTRGSLGGGYSSGGFSGGSFSRGSSGGGCFGGSSGGYGGFGGGGSFGGGYGGSSFGGGYGGSSFGGGYGGSSFGGAGFGGGGSFGGGSFGGGSYGGGFGGGGFGGDGGSLLSGNGRVTMQNLNDRLASYMDKVRALEESNYELEGKIKEWYEKHGNSSQREPRDYSKYYKTIEDLKGQILTLTTDNANVLLQIDNARLAADDFRLKYENEVTLRQSVEADINGLRRVLDELTLSKSDLEMQIESLNEELAYLKKNHEEEMRDLQNVSTGDVNVEMNAAPGVDLTQLLNNMRNQYEQLAEKNRKDAEEWFNQKSKELTTEIDSNIEQMSSHKSEITELRRTVQGLEIELQSQLALKQSLEASLAETEGRYCVQLSQIQSQISALEEQLQQIRAETECQNAEYQQLLDIKTRLENEIQTYRSLLEGEGSSSGGGGGRRGGSGGGSYGGSSGGGSYGGSSGGGGSYGGSSGGGGSYGGGSSGGGSHGGSSGGGYGGGSSSGGAGGHGGSSGGGYGGGSSSGGQGGSGGFKSSGGGDQSSKGPRY
B5: KRT1 (protein, UniProt P04104 1-637)
chain: MSLQCSSRSLCRGGGGSRNFSSGSAGLVSFQRRSTSSSMRRSGGGGGGRFSGGGFCGSSGSGFGSKSLMNLGGGRSISKSVAGGGGSFCGGFGGGSYGGGGFGGGSYGGGGFGGGSFGGGGFGGSGFGGGLGGGGGFGSGGGFGGGRFGSMGPVCPPGGIQEVTINQSLLQPLNVEVDPQIQKVKSQEREQIKSLNDKFASFIDKVRFLEQQNQVLQTKWELLQQVDTTTRTQNLDPFFENYISILRRKVDSLKSDQSRMDSELKNMQDLVEEYRTKYEDEINKRTNAENEFVTIKKDVDSAYMTKVELQAKADALQQDIDFFSALYQMEMSQMQTQISETNVVLSMDNNRSLDLDGIISEVKAQYDSICQRSKAEAETFYQSKYEELQITAGKHGDSVRNTKMEISELNRMIQRLRSEIDGCKKQISQIQQNINDAEQRGEKALKDAQNKLNEIEDALSQCKEDLARLLRDFQELMNTKLALDMEIATYKKLLEGEEIRMSGECTPNVSVSVSTSHTSMSGSSSRGGGSGGGRYGGGGSYGGGSGGGSYGGSSGGGGSGGSYGGGSGGGSYGGGSGGGSSGSHRGGSGGGGGSSGGSYGGSSGGGRGGSSSGGGGVKSSGSSTVKFVSTSYSRGTK

The test concerns the target LIM only protein 7 (LMO7) (mouse (endogenous in P6 organ of Corti)). As to the kind of experiment: affinity purification with mass spectrometry; Co-IP/MS: endogenous LMO7 precipitated from lysate of forty P6 mouse cochleae with monoclonal LMO7 antibody B-7 overnight at 4 °C, Protein G beads, lysis buffer 50 mM Tris pH 8, 100 mM NaCl, 0.5% NP40, 1 mM EGTA, 1 mM EDTA; beads washed three times; on-bead trypsin digest, LC-MS/MS; equivalent Lmo7 KO tissue as negative control.
In the case of B1, the binding entry is listed as “binds”. Under B2 stands “binds”; under B3, “binds”. Take B4: the binding result was “binds”. Next, B5: “binds”.
